Laboratory results as given in article PMC3475670.
These are yes or no findings as the source states them, for the method shown. Binding seen in cells or lysates may run through a third protein. Sequences can lack the tags named with a protein.

Chains of the proteins cited; added tags and fusions are not shown.
UniProt Q9UN81: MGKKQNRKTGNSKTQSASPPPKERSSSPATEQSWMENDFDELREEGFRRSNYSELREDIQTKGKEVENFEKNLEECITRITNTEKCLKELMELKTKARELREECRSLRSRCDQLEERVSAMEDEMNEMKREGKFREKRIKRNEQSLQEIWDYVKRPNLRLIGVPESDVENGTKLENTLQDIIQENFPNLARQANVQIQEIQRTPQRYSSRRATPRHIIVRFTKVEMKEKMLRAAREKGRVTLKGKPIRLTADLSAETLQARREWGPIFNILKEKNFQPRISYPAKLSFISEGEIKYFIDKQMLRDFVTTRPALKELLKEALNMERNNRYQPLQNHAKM

Biological target: T1, V5-tagged fibrillarin (FBL) (UniProt P22087)
T1 sequence: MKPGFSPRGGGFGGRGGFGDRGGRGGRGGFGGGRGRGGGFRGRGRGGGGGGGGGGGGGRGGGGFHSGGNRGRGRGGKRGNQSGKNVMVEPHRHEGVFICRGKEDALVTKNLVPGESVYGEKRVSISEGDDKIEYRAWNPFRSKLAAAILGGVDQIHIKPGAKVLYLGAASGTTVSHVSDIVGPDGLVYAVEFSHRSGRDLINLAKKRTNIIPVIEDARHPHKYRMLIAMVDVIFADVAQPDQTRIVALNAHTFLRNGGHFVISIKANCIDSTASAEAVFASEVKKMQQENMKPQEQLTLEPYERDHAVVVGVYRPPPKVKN
Assay: co-IP; V5-tagged proteins transfected in 2102Ep cells and precipitated on Protein G Agarose/Salmon Sperm DNA; endogenous ORF1p detected with the α-ORF1p AH40.1 antibody

binding: no binding
Substance: endogenous L1 ORF1 protein (from UniProt Q9UN81 1-338)
